Data reported in the supplement of paper PMC12823440, “Inhibitors supercharge kinase turnover through native proteolytic circuits” (Nature, 2025).
Where a name gives a salt, the structure may show the parent alone. Some of the results follow. The calls rarely recur for the same compound in another form.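 Kinases, fused to nanoluciferase, were expressed in K562 cells; luminescence was measured every 4 h from 2 to 18 h as percent of control (DMSO = 100%, positive control = 0%). A time point is decreased if signal falls significantly (2 sigma). Hits were called by the authors by a rule that is not shown; the count of time points alone does not decide it.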

Protein sequences, listed by entry. Tags and fused reporters are not part of them.
UniProt P07947, whole entry, looked up: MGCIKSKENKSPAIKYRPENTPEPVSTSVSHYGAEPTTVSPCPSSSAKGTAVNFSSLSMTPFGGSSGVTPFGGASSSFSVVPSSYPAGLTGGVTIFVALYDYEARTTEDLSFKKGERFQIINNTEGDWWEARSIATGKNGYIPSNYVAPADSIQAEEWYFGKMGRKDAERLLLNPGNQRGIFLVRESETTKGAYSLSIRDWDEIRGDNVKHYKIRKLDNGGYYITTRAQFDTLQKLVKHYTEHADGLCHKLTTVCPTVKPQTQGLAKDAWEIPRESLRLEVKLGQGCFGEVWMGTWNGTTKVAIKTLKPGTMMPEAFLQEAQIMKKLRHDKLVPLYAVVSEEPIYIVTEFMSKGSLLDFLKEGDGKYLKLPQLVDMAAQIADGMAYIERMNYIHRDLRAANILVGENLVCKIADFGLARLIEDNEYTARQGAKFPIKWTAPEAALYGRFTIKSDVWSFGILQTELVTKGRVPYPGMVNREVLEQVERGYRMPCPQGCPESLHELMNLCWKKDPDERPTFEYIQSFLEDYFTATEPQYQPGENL

The compounds below were run against YES1 (UniProt P07947) (assay: number of time points (of 5) at which kinase-Nluc abundance scored as decreased, DMSO-normalised (count); higher = more persistent destabilization). Details: K562; 2-18 h.

Question: Which “number of time points” value does the source give for `Cc1ccc(Nc2cc(N[C@@H]3CCCC[C@@H]3N)nnc2C(N)=O)nc1C` (2 µM) here?
Answer: 0

Question: For `NC(=O)c1sc2c([N+](=O)[O-])cc(C(F)(F)F)cc2[n+]1[O-]` [Cyclapolin 9] (10 µM), which “number of time points” value is on record?
Answer: 0

Question: With `O=C(C#Cc1ccccc1)c1cccc([N+](=O)[O-])c1` (10 µM) as the compound, how does the “number of time points” value read?
Answer: 0

Question: For `NC(=O)c1ccccc1Nc1ccnc(Nc2cccc(O)c2)n1` (10 µM), which “number of time points” value is on record?
Answer: 1

Question: `Cc1cncc2cccc(S(=O)(=O)N3CCCNC[C@@H]3C)c12` [H-1152 (dihydrochloride)] (10 µM) was tested. Which “number of time points” value did it give?
Answer: 0

Question: `C=CC(=O)Nc1cccc(Oc2nc(Nc3ccc(N4CCN(C)CC4)cc3OC)ncc2Cl)c1` (10 µM) was tested. Which “number of time points” value did it give?
Answer: 0

Question: `Cc1n[nH]c2ncc(C(=O)N3CCC[C@H]3c3ccc(Cl)cc3)cc12` (10 µM) was tested. Which “number of time points” value did it give?
Answer: 0

Question: `N#Cc1cnc(Nc2cc(NC[C@H]3CNCCO3)c(C(F)(F)F)cn2)cn1` (10 µM) was tested. Which “number of time points” value did it give?
Answer: 0

Question: With `Cc1ncc(-c2cc(F)c(O)c(F)c2)cc1-c1cc(F)c(O)c(F)c1` (10 µM) as the compound, how does the “number of time points” value read?
Answer: 0

Question: For `N#Cc1cc(N2CCC(C(=O)N3N=CC[C@H]3c3cc(F)cc(F)c3)CC2)ncn1` (10 µM), which “number of time points” value is on record?
Answer: 0

Question: How did the “number of time points” value turn out when `C[C@H](Nc1cc2c(-c3ccc4c(c3)OCO4)noc2cn1)c1ccccc1` (10 µM) was run?
Answer: 0

Question: With `CCOC(=O)c1c(N2CCc3ccc(OC)cc3C2)oc(C=C2C=Nc3ncccc32)c1O` (10 µM) as the compound, how does the “number of time points” value read?
Answer: 0

Question: For `CC(C)n1cnc2c(Nc3cccc(Cl)c3)nc(N[C@H]3CCCC[C@@H]3N)nc21` (2.5 µM), which “number of time points” value is on record?
Answer: 0

Question: `Nc1ccc(Sc2nc3ccccc3s2)c(Cl)c1` [KRAS inhibitor-9] (10 µM) was tested. Which “number of time points” value did it give?
Answer: 0

Question: `COc1cc2c(cc1OC)[C@@H]1C(=O)c3ccc4c(c3O[C@@H]1CO2)C=CC(C)(C)O4` [Deguelin] (10 µM) was tested. Which “number of time points” value did it give?
Answer: 0

Question: For `Cn1cc(-c2nc(N[C@@H]3CCCC[C@@H]3N)c(F)c3c2C(=O)NC3)cn1` [TAK-659 (hydrochloride)] (2 µM), which “number of time points” value is on record?
Answer: 0

Question: How did the “number of time points” value turn out when `CCOC(=O)c1c(Nc2ccccc2Cl)oc(/C=C2\C=Nc3ncccc32)c1O` (10 µM) was run?
Answer: 0

Question: Which “number of time points” value does the source give for `NC(=O)c1c(NC(=O)C2CC2)sc2c1CCCC2` (10 µM) here?
Answer: 0

Question: Which “number of time points” value does the source give for `CN1CCC(Nc2nc(Nc3ccc(Oc4ccccc4)cc3)c3c(=O)[nH]cc(Br)c3n2)CC1` (2.5 µM) here?
Answer: 0

Question: For `N#CC(=C(/N)Sc1ccccc1N)/C(C#N)=C(\N)Sc1ccccc1N` (10 µM), which “number of time points” value is on record?
Answer: 0

Question: `CC(C)n1c(CO)nc2c(F)cc(-c3nc(Nc4ccc(CN5CCNCC5)cn4)ncc3F)cc21` (10 µM) was tested. Which “number of time points” value did it give?
Answer: 2

Question: `O=C(Nc1ccc(F)cc1F)C(NC(=S)Nc1cc(C(F)(F)F)cc(C(F)(F)F)c1)c1ccccc1` (racemic) (2.5 µM) was tested. Which “number of time points” value did it give?
Answer: 0

Question: With `COCCNc1cc(NC(=O)N2CCCc3cc(CN4CCOCC4=O)c(C=O)nc32)ncc1C#N` (10 µM) as the compound, how does the “number of time points” value read?
Answer: 0

Question: With `CC/C(=C(\c1ccccc1)c1ccc(OCCNC)cc1)c1ccccc1` [N-Desmethyltamoxifen (hydrochloride)] (2.5 µM) as the compound, how does the “number of time points” value read?
Answer: 0

Question: For `C[C@@H]1CN(Cc2ccc(F)cc2)[C@@H](C)CN1C(=O)c1cc2c(C(=O)C(=O)N(C)C)cn(C)c2cc1Cl` [Talmapimod] (10 µM), which “number of time points” value is on record?
Answer: 0

Question: Which “number of time points” value does the source give for `Nc1nccc(Oc2ccc3c(C(=O)Nc4cccc(C(F)(F)F)c4)cccc3c2)n1` (10 µM) here?
Answer: 0

Question: With `COc1c(Nc2ncc(Cl)c(N[C@H]3[C@@H](C(N)=O)[C@@H]4C=C[C@H]3C4)n2)ccc2c1CC[C@@H](N1CCOCC1)CC2` (10 µM) as the compound, how does the “number of time points” value read?
Answer: 0

Question: How did the “number of time points” value turn out when `CNCc1ccccc1Sc1cccc2ccccc12` [IFN alpha-IFNAR-IN-1 (hydrochloride)] (10 µM) was run?
Answer: 0

Question: With `COc1cccc(-c2cc(=O)c3ccccc3o2)c1N` (10 µM) as the compound, how does the “number of time points” value read?
Answer: 0

Question: Which “number of time points” value does the source give for `Nc1ccc(-c2nc3ccc(-c4nc5ccc(N)cc5[nH]4)cc3[nH]2)cc1` (10 µM) here?
Answer: 0

Question: For `Cc1ccc(C2CC(=O)NC(SCC(=O)Nc3nccs3)=C2C#N)cc1` (stereo not drawn) [Necrostatin-34] (10 µM), which “number of time points” value is on record?
Answer: 0

Question: For `CC(C)Cn1ncc2cc(Oc3ccc(F)cc3F)c(C(=O)NCCN(C)C)cc21` [p38α inhibitor 1] (10 µM), which “number of time points” value is on record?
Answer: 0

Question: How did the “number of time points” value turn out when `O=C(NC[C@H](O)CO)c1ccncc1Nc1ccc(I)cc1F` [Pimasertib] (10 µM) was run?
Answer: 0

Question: Which “number of time points” value does the source give for `CN1C(=O)N[C@@H](Cc2c[nH]c3c(Cl)cccc23)C1=O` [Necrostatin 2 (S enantiomer)] (10 µM) here?
Answer: 0

Question: `Cc1cc2c(F)c(Oc3ncnn4cc(OC[C@@H](C)OC(=O)[C@H](C)N)c(C)c34)ccc2[nH]1` [Brivanib (alaninate)] (10 µM) was tested. Which “number of time points” value did it give?
Answer: 0

Question: Which “number of time points” value does the source give for `C=CC(=O)Nc1cc(Nc2nccc(-c3cn(C)c4ccccc34)n2)c(OCC(F)(F)F)nc1N(C)CCNC` [AST5902  (trimesylate)] (2.5 µM) here?
Answer: 0

Question: With `COc1cc2nccc(Nc3cccc(Oc4ccccc4)c3)c2cc1OC` (2.5 µM) as the compound, how does the “number of time points” value read?
Answer: 0

Question: With `CC(C)(Oc1ccc(Cl)cc1)C(=O)Nc1ccc(OCc2ccc(C#N)cc2)cc1` [AMPK activator 4] (10 µM) as the compound, how does the “number of time points” value read?
Answer: 0
